Data published in article PMC5009287.
No constants are given. Whether binding was seen depends on the method and setting. Some entries that bind do so weakly or less than the wild type.

The chains behind the UniProt entries cited, without tags or fusion partners. Where a name states a change or a piece, a line headed by the entry shows the natural chain unless it says otherwise. Residues count along the entry.
UniProt P02454: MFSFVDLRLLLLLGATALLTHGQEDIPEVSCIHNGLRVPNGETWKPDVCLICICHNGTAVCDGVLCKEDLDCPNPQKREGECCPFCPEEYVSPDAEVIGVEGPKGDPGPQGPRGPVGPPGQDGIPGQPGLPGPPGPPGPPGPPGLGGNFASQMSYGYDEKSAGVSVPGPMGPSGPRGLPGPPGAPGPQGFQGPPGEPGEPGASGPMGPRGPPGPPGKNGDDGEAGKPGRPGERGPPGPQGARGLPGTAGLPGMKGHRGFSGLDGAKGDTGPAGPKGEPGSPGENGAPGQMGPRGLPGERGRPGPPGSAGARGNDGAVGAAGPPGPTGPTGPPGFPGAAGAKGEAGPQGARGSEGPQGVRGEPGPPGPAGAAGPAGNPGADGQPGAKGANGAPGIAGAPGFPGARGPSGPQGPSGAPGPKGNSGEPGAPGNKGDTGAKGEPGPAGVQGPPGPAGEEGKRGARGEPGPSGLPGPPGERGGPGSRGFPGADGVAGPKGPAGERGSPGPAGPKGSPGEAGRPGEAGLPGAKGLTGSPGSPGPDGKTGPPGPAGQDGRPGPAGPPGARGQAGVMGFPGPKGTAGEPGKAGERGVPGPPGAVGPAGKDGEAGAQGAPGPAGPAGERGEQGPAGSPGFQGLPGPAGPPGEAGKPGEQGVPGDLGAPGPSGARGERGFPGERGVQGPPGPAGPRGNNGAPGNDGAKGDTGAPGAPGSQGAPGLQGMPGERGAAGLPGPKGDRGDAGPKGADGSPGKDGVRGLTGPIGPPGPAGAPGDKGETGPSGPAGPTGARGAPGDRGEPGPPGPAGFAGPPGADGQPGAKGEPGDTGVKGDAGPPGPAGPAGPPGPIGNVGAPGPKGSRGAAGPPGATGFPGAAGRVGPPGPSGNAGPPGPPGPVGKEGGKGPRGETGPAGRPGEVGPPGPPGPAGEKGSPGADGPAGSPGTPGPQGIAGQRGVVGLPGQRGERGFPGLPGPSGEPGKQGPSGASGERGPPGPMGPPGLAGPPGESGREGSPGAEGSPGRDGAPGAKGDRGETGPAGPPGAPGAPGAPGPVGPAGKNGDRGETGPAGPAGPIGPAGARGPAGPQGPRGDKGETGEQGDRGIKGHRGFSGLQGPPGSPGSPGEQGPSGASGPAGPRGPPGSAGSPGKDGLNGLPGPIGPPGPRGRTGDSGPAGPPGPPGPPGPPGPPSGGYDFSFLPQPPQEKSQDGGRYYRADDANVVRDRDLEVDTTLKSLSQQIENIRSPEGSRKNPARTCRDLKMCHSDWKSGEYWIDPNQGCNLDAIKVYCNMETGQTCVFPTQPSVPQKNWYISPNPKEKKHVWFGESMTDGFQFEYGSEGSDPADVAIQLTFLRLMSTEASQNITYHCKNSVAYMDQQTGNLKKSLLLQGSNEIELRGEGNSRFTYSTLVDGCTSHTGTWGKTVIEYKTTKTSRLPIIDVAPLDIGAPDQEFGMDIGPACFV
UniProt P02466: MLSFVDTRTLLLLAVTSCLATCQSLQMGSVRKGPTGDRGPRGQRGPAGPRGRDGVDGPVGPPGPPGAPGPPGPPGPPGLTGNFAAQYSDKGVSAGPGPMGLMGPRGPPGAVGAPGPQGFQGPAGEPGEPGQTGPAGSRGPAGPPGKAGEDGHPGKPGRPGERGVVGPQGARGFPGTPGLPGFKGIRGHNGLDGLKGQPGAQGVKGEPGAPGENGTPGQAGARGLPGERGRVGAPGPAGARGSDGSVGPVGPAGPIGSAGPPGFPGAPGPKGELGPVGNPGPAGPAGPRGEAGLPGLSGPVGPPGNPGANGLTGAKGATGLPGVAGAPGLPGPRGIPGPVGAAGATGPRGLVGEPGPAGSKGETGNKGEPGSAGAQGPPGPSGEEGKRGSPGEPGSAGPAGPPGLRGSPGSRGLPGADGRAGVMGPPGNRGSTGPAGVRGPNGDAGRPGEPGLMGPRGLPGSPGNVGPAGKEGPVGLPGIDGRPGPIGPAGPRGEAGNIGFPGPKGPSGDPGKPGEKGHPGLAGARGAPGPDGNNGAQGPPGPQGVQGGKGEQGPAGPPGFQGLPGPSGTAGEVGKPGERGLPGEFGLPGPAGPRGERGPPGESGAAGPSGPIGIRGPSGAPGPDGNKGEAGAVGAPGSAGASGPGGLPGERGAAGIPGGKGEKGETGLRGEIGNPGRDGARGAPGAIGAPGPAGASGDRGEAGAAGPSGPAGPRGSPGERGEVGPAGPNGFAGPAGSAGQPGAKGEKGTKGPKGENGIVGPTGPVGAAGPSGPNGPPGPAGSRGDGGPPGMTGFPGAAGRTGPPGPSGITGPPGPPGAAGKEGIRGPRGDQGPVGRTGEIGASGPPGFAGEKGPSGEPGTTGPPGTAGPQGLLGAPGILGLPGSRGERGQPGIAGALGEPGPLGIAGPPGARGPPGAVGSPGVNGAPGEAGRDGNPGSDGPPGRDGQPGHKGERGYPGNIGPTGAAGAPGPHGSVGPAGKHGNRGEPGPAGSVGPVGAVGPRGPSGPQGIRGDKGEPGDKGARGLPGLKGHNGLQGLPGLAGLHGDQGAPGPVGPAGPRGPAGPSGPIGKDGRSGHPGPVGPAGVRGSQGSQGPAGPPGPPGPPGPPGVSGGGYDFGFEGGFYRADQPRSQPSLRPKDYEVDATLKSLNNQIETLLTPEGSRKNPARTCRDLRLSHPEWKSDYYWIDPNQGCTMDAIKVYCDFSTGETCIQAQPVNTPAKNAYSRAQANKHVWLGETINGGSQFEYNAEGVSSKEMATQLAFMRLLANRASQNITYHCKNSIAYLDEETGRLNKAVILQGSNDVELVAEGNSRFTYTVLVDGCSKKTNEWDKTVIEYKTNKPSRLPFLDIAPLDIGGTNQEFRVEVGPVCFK
UniProt P17301, residues 172-355: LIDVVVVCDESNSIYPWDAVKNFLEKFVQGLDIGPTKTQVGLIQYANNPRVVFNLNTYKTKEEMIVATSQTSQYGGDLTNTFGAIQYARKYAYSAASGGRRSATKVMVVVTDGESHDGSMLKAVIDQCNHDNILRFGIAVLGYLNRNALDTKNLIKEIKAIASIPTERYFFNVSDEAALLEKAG

Key:
[1] = biological target: T1, native type I collagen from rat tail (rat) (UniProt P02454+P02466); assay: condition: only collagen denatured at 75 °C for 30 min; ELISA; solid-state binding assay as a1, but the collagens (20 μg/ml) denatured at 75 °C for 30 min and immobilised immediately; both purified
[2] = biological target: T1, native type I collagen from rat tail (rat); assay: ELISA; solid-state binding assay: native recombinant collagens or rat tail type I collagen (0.02 mg/ml) immobilised on 96-well plates, GST-I domain in 1× PBS with 2 mM MgCl2 added for 1 h at room temperature, detected with anti-GST HRP antibody, A450; single I domain concentration (Figs. 3, 4A) and dose response 0-1.8 μM (Fig. 4B); both purified

recombinant I domain from the integrin α2 subunit (from UniProt P17301 172-355) (domain or fragment)
binding [1]: no binding
binding [2]: binds
